Test results reported in article PMC4081717.
Results are given in words; binding and its absence hold for the method and conditions named. In cells and extracts the contact can be indirect. Some binding calls cover weakened binding; strength is not graded here. Sequences can lack the tags named with a protein.

What was measured:
[1] = biological target: T1, human Kv4.3 tagged with Flag in the C-terminal (human) (UniProt Q9UK17); assay: co-IP; lysate of HEK293 cells expressing Kv4.3 (C-terminal Flag) and KChIP2; anti-Flag as immunoprecipitating antibody; blot for KChIP2; untreated or treated with MWCNTs
T1 sequence: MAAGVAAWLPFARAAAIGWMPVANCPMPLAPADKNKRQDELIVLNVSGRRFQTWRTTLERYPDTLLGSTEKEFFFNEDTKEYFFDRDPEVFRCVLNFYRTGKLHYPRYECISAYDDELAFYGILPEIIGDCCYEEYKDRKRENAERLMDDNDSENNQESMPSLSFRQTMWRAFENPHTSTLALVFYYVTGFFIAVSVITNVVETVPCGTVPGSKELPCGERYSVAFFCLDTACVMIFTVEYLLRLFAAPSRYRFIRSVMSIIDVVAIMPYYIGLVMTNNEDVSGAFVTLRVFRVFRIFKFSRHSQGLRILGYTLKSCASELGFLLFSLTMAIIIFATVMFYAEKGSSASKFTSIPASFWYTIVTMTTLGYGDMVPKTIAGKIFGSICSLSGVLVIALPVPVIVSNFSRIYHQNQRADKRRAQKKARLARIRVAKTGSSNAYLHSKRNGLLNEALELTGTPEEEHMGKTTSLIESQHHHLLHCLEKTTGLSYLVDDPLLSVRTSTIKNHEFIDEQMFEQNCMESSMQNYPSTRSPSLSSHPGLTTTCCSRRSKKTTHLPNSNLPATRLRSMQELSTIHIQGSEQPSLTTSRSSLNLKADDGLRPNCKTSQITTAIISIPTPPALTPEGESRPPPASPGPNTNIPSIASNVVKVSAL

Flag-Kv4.2-GFP (mouse) = biological target: T2, Flag-Kv4.2-GFP (mouse) (UniProt Q9Z0V2); assay: co-IP; lysate of HEK293 cells expressing Kv4.2 (Flag-Kv4.2-GFP) and KChIP2; mild lysis buffer (50 mM Tris-Cl pH 7.4, 150 mM NaCl, 1 mM EDTA, 1% NP-40, 0.5% sodium deoxycholate); anti-Kv4.2 antibody, protein A/G agarose, 4°C; blot for KChIP2; untreated, or MWCNTs 20 µg/ml for 6 h in the culture medium or in the lysate (KChIP2/Kv4.2 ratio then (66.0±13.6)% and (49.4±18.0)% of control)
T2 sequence: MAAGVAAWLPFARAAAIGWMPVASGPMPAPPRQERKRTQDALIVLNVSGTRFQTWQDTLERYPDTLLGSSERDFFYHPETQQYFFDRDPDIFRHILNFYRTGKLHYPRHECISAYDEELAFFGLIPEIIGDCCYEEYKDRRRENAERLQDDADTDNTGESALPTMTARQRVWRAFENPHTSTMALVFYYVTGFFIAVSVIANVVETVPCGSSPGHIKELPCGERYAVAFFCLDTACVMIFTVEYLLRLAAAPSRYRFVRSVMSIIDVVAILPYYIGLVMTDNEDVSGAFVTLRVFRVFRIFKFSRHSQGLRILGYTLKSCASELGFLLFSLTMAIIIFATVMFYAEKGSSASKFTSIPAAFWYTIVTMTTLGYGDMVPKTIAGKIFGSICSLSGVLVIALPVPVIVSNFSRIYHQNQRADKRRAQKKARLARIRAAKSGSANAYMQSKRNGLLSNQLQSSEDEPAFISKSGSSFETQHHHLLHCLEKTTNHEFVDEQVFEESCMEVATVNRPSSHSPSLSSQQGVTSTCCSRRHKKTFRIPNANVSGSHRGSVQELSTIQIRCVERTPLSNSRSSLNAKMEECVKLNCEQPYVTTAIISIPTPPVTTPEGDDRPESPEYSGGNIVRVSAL

B1: potassium channel interacting protein 2 (KChIP2) (protein, UniProt Q9JJ69 1-270)
chain: MRGQGRKESLSDSRDLDGSYDQLTGHPPGPSKKALKQRFLKLLPCCGPQALPSVSETLAAPASLRPHRPRPLDPDSVEDEFELSTVCHRPEGLEQLQEQTKFTRRELQVLYRGFKNECPSGIVNEENFKQIYSQFFPQGDSSNYATFLFNAFDTNHDGSVSFEDFVAGLSVILRGTIDDRLNWAFNLYDLNKDGCITKEEMLDIMKSIYDMMGKYTYPALREEAPREHVESFFQKMDRNKDGVVTIEEFIESCQQDENIMRSMQLFDNVI
For B1, the binding [1] was “binds” and the binding (Flag-Kv4.2-GFP (mouse)) was “binds”.
